PubChem BioAssay AID602196 | INSERM, 2012
Aim: 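Genes whose knock-down alters cisplatin killing of lung cancer cells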. Cells: human A549 lung cancer cells. Knock-down reagent: siRNA pair against human genes. Timing: 48 h transfection before cisplatin; time from cisplatin to read-out not stated. Challenge: cisplatin at a dose killing half of control-siRNA cells; exact dose and duration not given. Measurement: 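Cisplatin cell death as a shift from the 50% death seen with control siRNA; siRNAs toxic or growth-blocking alone scored 0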. Direction: two-siRNA summed score (-2 to +2): higher = both siRNAs protect from cisplatin killing; -2 means both sensitise; mean protection from cisplatin (shift in death): higher = protection from cisplatin killing. Call rule: 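siRNAs harmful alone (LDH or WST-1) get 0; others get +1 for less and -1 for more cisplatin killing; genes are active when the two siRNAs give the same sign, summing to ±2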. Calls: active = both siRNAs shift cisplatin killing the same way; inactive = no consistent shift, or siRNA harmful alone.
Shown is one part, drawn at random, of about 23,000 deposited reagents. 455 of them (2%) were called active. 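Active includes both protection and sensitisation; some change values fall well beyond the stated -50 to +50 range.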 Further read-outs or replicates are left out here. Not given: the amount of reagent.

Knock-down of SHOC2 (SHOC2 leucine rich repeat scaffold protein) resulted in: two-siRNA summed score (-2 to +2) = -1; mean protection from cisplatin (shift in death) (%) = -8.1; inactive. For HOMEZ (homeobox and leucine zipper encoding), the values are two-siRNA summed score (-2 to +2) = 0; mean protection from cisplatin (shift in death) (%) = 7.3; inactive. Silencing of MYBPHL (myosin binding protein H like) resulted in: two-siRNA summed score (-2 to +2) = -1; mean protection from cisplatin (shift in death) (%) = -8.3; inactive. For MAMSTR the deposit lists two-siRNA summed score (-2 to +2) = 0; mean protection from cisplatin (shift in death) (%) = -6.8; inactive. After knock-down of CHPT1 (choline phosphotransferase 1), the screen gave two-siRNA summed score (-2 to +2) = 0; mean protection from cisplatin (shift in death) (%) = -1.8; inactive. With knock-down of FAM117A (family with sequence similarity 117 member A), the record shows two-siRNA summed score (-2 to +2) = 0; mean protection from cisplatin (shift in death) (%) = 0.6; inactive.

With knock-down of LETMD1 (LETM1 domain containing 1), the screen gave two-siRNA summed score (-2 to +2) = -1; mean protection from cisplatin (shift in death) (%) = -17.4; inactive. CWH43 (cell wall biogenesis 43 C-terminal homolog) showed two-siRNA summed score (-2 to +2) = 0; mean protection from cisplatin (shift in death) (%) = -5.7; inactive. LOC390278 scored two-siRNA summed score (-2 to +2) = 0; mean protection from cisplatin (shift in death) (%) = 12; inactive. RNPEPL1 (arginyl aminopeptidase like 1) scored two-siRNA summed score (-2 to +2) = 0; mean protection from cisplatin (shift in death) (%) = 10.2; inactive. Knock-down of HOXB4 (homeobox B4) came out at: two-siRNA summed score (-2 to +2) = 0; mean protection from cisplatin (shift in death) (%) = 12.1; inactive. For ASB5 (ankyrin repeat and SOCS box containing 5), the values are two-siRNA summed score (-2 to +2) = 0; mean protection from cisplatin (shift in death) (%) = -3.2; inactive.

For FAN1 (FANCD2 and FANCI associated nuclease 1), the values are two-siRNA summed score (-2 to +2) = 1; mean protection from cisplatin (shift in death) (%) = 10.5; inactive. For GPD2 (glycerol-3-phosphate dehydrogenase 2), the entry reads two-siRNA summed score (-2 to +2) = 0; mean protection from cisplatin (shift in death) (%) = -5.5; inactive. Knock-down of POU4F3 (POU class 4 homeobox 3) came out at: two-siRNA summed score (-2 to +2) = 0; mean protection from cisplatin (shift in death) (%) = -12; inactive. With knock-down of CACNA1A (calcium voltage-gated channel subunit alpha1 A), the record shows two-siRNA summed score (-2 to +2) = -1; mean protection from cisplatin (shift in death) (%) = -2; inactive. For FOXS1 (forkhead box S1), the values are two-siRNA summed score (-2 to +2) = 1; mean protection from cisplatin (shift in death) (%) = 8.4; inactive. With knock-down of ZNF253 (zinc finger protein 253), the screen gave two-siRNA summed score (-2 to +2) = 0; mean protection from cisplatin (shift in death) (%) = 3.8; inactive.

For PUM1 (pumilio RNA binding family member 1), the values are two-siRNA summed score (-2 to +2) = 2; mean protection from cisplatin (shift in death) (%) = 14.8; active. With knock-down of OR1N2 (olfactory receptor family 1 subfamily N member 2), the screen gave two-siRNA summed score (-2 to +2) = 0; mean protection from cisplatin (shift in death) (%) = -1.2; inactive. LOC399898 (retired record) gave two-siRNA summed score (-2 to +2) = 0; mean protection from cisplatin (shift in death) (%) = -6.8; inactive. Silencing of LOC388727 came out at: two-siRNA summed score (-2 to +2) = 0; mean protection from cisplatin (shift in death) (%) = 12.9; inactive. Against FASN (fatty acid synthase), the values are two-siRNA summed score (-2 to +2) = 0; mean protection from cisplatin (shift in death) (%) = -4.2; inactive. After knock-down of NDUFAB1 (NADH:ubiquinone oxidoreductase subunit AB1), the screen gave two-siRNA summed score (-2 to +2) = 1; mean protection from cisplatin (shift in death) (%) = 13.3; inactive.

With knock-down of OR6N2 (olfactory receptor family 6 subfamily N member 2), the screen gave two-siRNA summed score (-2 to +2) = 0; mean protection from cisplatin (shift in death) (%) = 1.3; inactive. With knock-down of CFAP410 (cilia and flagella associated protein 410), the record shows two-siRNA summed score (-2 to +2) = 1; mean protection from cisplatin (shift in death) (%) = 27; inactive. RORC (RAR related orphan receptor C) gave two-siRNA summed score (-2 to +2) = 0; mean protection from cisplatin (shift in death) (%) = -5.5; inactive. LOC338750 gave two-siRNA summed score (-2 to +2) = 0; mean protection from cisplatin (shift in death) (%) = 17.1; inactive. With knock-down of SEMA7A (semaphorin 7A (JohnMiltonHagen blood group)) the results were two-siRNA summed score (-2 to +2) = 0; mean protection from cisplatin (shift in death) (%) = 6.7; inactive. Depletion of CHST5 (carbohydrate sulfotransferase 5) resulted in: two-siRNA summed score (-2 to +2) = 0; mean protection from cisplatin (shift in death) (%) = 1.3; inactive.

After knock-down of P4HA3 (prolyl 4-hydroxylase subunit alpha 3), the screen gave two-siRNA summed score (-2 to +2) = 2; mean protection from cisplatin (shift in death) (%) = 23.2; active.

An excerpt from above, showing only “two-siRNA summed score (-2 to +2)”.
LOC399898 (retired record) = 0
LOC388727 = 0
FASN (fatty acid synthase) = 0
NDUFAB1 (NADH:ubiquinone oxidoreductase subunit AB1) = 1
